Measured data: PubChem BioAssay AID652259 (Drosophila RNAi Screening Center, 2013)
The deposit covers about 22,000 reagents; below is an unselected part of those that have a named target and a result. In the full data, 233 (1.1%) are marked active. 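Light values are raw, unnormalised plate reads; the ratio scores behind the reporter calls were not deposited.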 Names joined by + are all predicted targets of the reagent. No sequences are given here. Not stated in the record: the amount of reagent, the time to read-out, the dose of the treatment.

Purpose: 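Identify new Wingless signalling regulators in fly cells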 (primary screen)
Cell system: Drosophila clone 8 imaginal disc epithelial cells
Knock-down reagent: long dsRNA against Drosophila genes
Challenge: pathway stimulated by co-transfected Wingless expression plasmid
Read-out: 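Firefly luciferase from a tcf-site Wingless reporter, measured alongside co-transfected Renilla luciferase that tracks transfection; pathway stimulated by a Wingless plasmid; the firefly-to-Renilla ratio is not deposited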
Scale: firefly reporter light: higher = more Wg reporter light, before normalisation; Renilla control light: higher = more transfected or surviving cells
Active means: 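a knock-down is a candidate when at least two out of four statistical tests show it departing from its plate mean; one test alone signals a weak candidate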
Meaning of the calls: active = candidate regulator (raises or lowers reporter); inactive = not a candidate

Mcm6 [DRSC18680]: firefly reporter light, replicate 1 = 1658; firefly reporter light, replicate 2 = 6256; Renilla control light, replicate 1 = 584; Renilla control light, replicate 2 = 1747; activity call = inactive
CG34232 [DRSC05332]: firefly reporter light, replicate 1 = 13522; Renilla control light, replicate 1 = 11206; activity call = inactive
CG13299 [DRSC09973]: firefly reporter light, replicate 1 = 1425; firefly reporter light, replicate 2 = 10261; Renilla control light, replicate 1 = 1447; Renilla control light, replicate 2 = 3754; activity call = inactive
Sec24CD [DRSC00300]: firefly reporter light, replicate 1 = 10632; Renilla control light, replicate 1 = 2859; activity call = inactive
cmb [DRSC09790]: firefly reporter light, replicate 1 = 6428; Renilla control light, replicate 1 = 2694; activity call = inactive
ZC3H3 [DRSC10696]: firefly reporter light, replicate 1 = 1138; firefly reporter light, replicate 2 = 2788; Renilla control light, replicate 1 = 315; Renilla control light, replicate 2 = 653; activity call = inactive
Ptx1 [DRSC16804]: firefly reporter light, replicate 1 = 4760; Renilla control light, replicate 1 = 2922; activity call = inactive
fog [DRSC20646]: firefly reporter light, replicate 1 = 1745; firefly reporter light, replicate 2 = 7795; Renilla control light, replicate 1 = 874; Renilla control light, replicate 2 = 2115; activity call = inactive
Srp54k [DRSC11289]: firefly reporter light, replicate 1 = 1312; firefly reporter light, replicate 2 = 7916; Renilla control light, replicate 1 = 989; Renilla control light, replicate 2 = 2793; activity call = inactive
CG31008 [DRSC14028]: firefly reporter light, replicate 1 = 2722; Renilla control light, replicate 1 = 1082; activity call = inactive
tipE [DRSC08738]: firefly reporter light, replicate 1 = 3931; Renilla control light, replicate 1 = 1740; activity call = inactive
CG9240 [DRSC20177]: firefly reporter light, replicate 1 = 24370; Renilla control light, replicate 1 = 10522; activity call = inactive
phu [DRSC16390]: firefly reporter light, replicate 1 = 12748; Renilla control light, replicate 1 = 2245; activity call = inactive
eIF3i [DRSC03464]: firefly reporter light, replicate 1 = 9267; Renilla control light, replicate 1 = 3284; activity call = inactive
RpLP2 [DRSC07539]: firefly reporter light, replicate 1 = 5012; Renilla control light, replicate 1 = 1078; activity call = inactive
CG43182 [DRSC17668]: firefly reporter light, replicate 1 = 3094; Renilla control light, replicate 1 = 1428; activity call = inactive
CG3368 [DRSC15485]: firefly reporter light, replicate 1 = 3344; firefly reporter light, replicate 2 = 5177; Renilla control light, replicate 1 = 1505; Renilla control light, replicate 2 = 1315; activity call = inactive
CG4730 [DRSC15633]: firefly reporter light, replicate 1 = 15783; Renilla control light, replicate 1 = 13436; activity call = inactive
Rift [DRSC14330]: firefly reporter light, replicate 1 = 18305; Renilla control light, replicate 1 = 15365; activity call = inactive
Pk34A [DRSC03398]: firefly reporter light, replicate 1 = 3584; firefly reporter light, replicate 2 = 6950; Renilla control light, replicate 1 = 1584; Renilla control light, replicate 2 = 3546; activity call = inactive
CG9259 [DRSC03174]: firefly reporter light, replicate 1 = 2343; firefly reporter light, replicate 2 = 4981; Renilla control light, replicate 1 = 662; Renilla control light, replicate 2 = 2118; activity call = inactive
Tsen34 + Trl [DRSC10014]: firefly reporter light, replicate 1 = 7501; Renilla control light, replicate 1 = 2236; activity call = inactive
RapGAP1 [DRSC02293]: firefly reporter light, replicate 1 = 2162; firefly reporter light, replicate 2 = 5536; Renilla control light, replicate 1 = 196; Renilla control light, replicate 2 = 2837; activity call = inactive
RapGAP1 [DRSC02294]: firefly reporter light, replicate 1 = 2492; firefly reporter light, replicate 2 = 5408; Renilla control light, replicate 1 = 457; Renilla control light, replicate 2 = 2560; activity call = inactive
RapGAP1 [DRSC02295]: firefly reporter light, replicate 1 = 2205; firefly reporter light, replicate 2 = 6122; Renilla control light, replicate 1 = 360; Renilla control light, replicate 2 = 3082; activity call = inactive
RapGAP1 [DRSC03406]: firefly reporter light, replicate 1 = 11201; Renilla control light, replicate 1 = 4400; activity call = inactive
CG33288 [DRSC11484]: firefly reporter light, replicate 1 = 4012; Renilla control light, replicate 1 = 1381; activity call = inactive
CG42827 [DRSC16116]: firefly reporter light, replicate 1 = 18642; Renilla control light, replicate 1 = 16333; activity call = inactive
CHKov1 [DRSC01566]: firefly reporter light, replicate 1 = 14777; Renilla control light, replicate 1 = 8124; activity call = inactive
CHKov1 [DRSC01696]: firefly reporter light, replicate 1 = 17213; Renilla control light, replicate 1 = 8891; activity call = inactive
CHKov1 [DRSC14258]: firefly reporter light, replicate 1 = 22629; Renilla control light, replicate 1 = 16084; activity call = inactive
Pcmt [DRSC12363]: firefly reporter light, replicate 1 = 22760; Renilla control light, replicate 1 = 5632; activity call = inactive

Sorted by “Renilla control light, replicate 1” (low to high): some entries from above
RapGAP1 [DRSC02293]: firefly reporter light, replicate 1 = 2162; firefly reporter light, replicate 2 = 5536; Renilla control light, replicate 1 = 196; Renilla control light, replicate 2 = 2837; activity call = inactive
CG9259 [DRSC03174]: firefly reporter light, replicate 1 = 2343; firefly reporter light, replicate 2 = 4981; Renilla control light, replicate 1 = 662; Renilla control light, replicate 2 = 2118; activity call = inactive
Tsen34 + Trl [DRSC10014]: firefly reporter light, replicate 1 = 7501; Renilla control light, replicate 1 = 2236; activity call = inactive
